Reference: US20210079060A1
These are yes or no findings as the source states them, for the method shown. Some entries that bind do so weakly or less than the wild type. Tags and fused reporters may be left off the sequences shown.

Protein sequences, listed by entry. Tags and fused reporters are not part of them.
UniProt Q5QGZ9: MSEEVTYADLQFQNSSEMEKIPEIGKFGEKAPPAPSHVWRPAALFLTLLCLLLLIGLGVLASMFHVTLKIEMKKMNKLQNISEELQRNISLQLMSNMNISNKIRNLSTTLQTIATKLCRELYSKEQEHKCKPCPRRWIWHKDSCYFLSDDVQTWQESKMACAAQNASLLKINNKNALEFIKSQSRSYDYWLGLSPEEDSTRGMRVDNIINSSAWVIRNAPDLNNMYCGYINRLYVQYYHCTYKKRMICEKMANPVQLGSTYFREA

Columns and labels:
Clec12A (human) [1] = target: Clec12A (human) (UniProt Q5QGZ9); assay: binding to U937 cells
Clec12A (human) [2] = target: Clec12A (human) (UniProt Q5QGZ9); assay: binding to U937 cells, % Binding against ul sup used /test/100ul
Clec12A (human) [3] = target: Clec12A (human) (UniProt Q5QGZ9); assay: binding to Clec12A expressing U937 cells

B1: CD19 mutant #2-G4Sx4-anti CLEC12a VHH 1G6-myc-His (VHH)
chain: PEEPLVVKVEEGDTAVLPCLKGTSDGPTQQLTWSRESPLKPFLKYSLGVPGLGVHVRPDAISVVIRNVSQQMGGFYLCQPGPPSEKAWQPGWTVNVEGSGELFRWNVSDLGGLGCGLKNRSSEGPSSPSGKLMSPKLYVWAKDRPEIWEGEPPCLPPRDSLNQSLSQDLTMAPGSTLWLSCGVPPDSVSRGPLSWTHVHPKGPKSLLSLELKDDRPAREMIVDETGLLLPRATAQDAGKWYCSRGNVTTSYHLEITARPVKAHSDLRTGGWKGGGGSGGGGSGGGGSGGGGSQVQLQQSGGGLVQAGGSLRLSCAASGSIFAINEINLMGWYRQAPGKQRELVAACASDGNTYYADSVKGRFTISRDNAEKTVYLQMNNLKPDDTAVYYCDANSRGNYYSGQGTQVTVSSTSGPGGQGAEQKLISEEDLGAHHHHHHGAS
Clec12A (human) [1]
  binding: binds
Clec12A (human) [2]
  binding: binds

B2: CD19 mutant #2-G4Sx4-anti CLEC12a VHH 2F3-myc-His (VHH)
chain: PEEPLVVKVEEGDTAVLPCLKGTSDGPTQQLTWSRESPLKPFLKYSLGVPGLGVHVRPDAISVVIRNVSQQMGGFYLCQPGPPSEKAWQPGWTVNVEGSGELFRWNVSDLGGLGCGLKNRSSEGPSSPSGKLMSPKLYVWAKDRPEIWEGEPPCLPPRDSLNQSLSQDLTMAPGSTLWLSCGVPPDSVSRGPLSWTHVHPKGPKSLLSLELKDDRPAREMIVDETGLLLPRATAQDAGKWYCSRGNVTTSYHLEITARPVKAHSDLRTGGWKGGGGSGGGGSGGGGSGGGGSQVQLQAFGGGLVQPGGSLRLSCVVSGTMFSGKDVNWLRQAPGKHVEVVATVSSDGGTDYADFVKGRFTISRDDAKNTVNLQMNSLEPEDTANYMCHFLWGRHYWGQGTQVTVSSTSGPGGQGAEQKLISEEDLGAHHHHHHGAS
Clec12A (human) [1]
  binding: binds
Clec12A (human) [2]
  binding: binds

B3: CD19 mutant #2-G4Sx4-anti CLEC12a VHH 2H3-myc-His (VHH)
chain: PEEPLVVKVEEGDTAVLPCLKGTSDGPTQQLTWSRESPLKPFLKYSLGVPGLGVHVRPDAISVVIRNVSQQMGGFYLCQPGPPSEKAWQPGWTVNVEGSGELFRWNVSDLGGLGCGLKNRSSEGPSSPSGKLMSPKLYVWAKDRPEIWEGEPPCLPPRDSLNQSLSQDLTMAPGSTLWLSCGVPPDSVSRGPLSWTHVHPKGPKSLLSLELKDDRPAREMIVDETGLLLPRATAQDAGKWYCSRGNVTTSYHLEITARPVKAHSDLRTGGWKGGGGSGGGGSGGGGSGGGGSQVQLQESGGGLVQAGGSLRLSCVASGSIRSINVMGWYRQAPGKQRELVAACASDGNTYYADSVKGRFTISRDNAEKTVYLQMNNLKPDDTAVYYCDANSRGNYYSGQGTQVTVSSTSGPGGQGAEQKLISEEDLGAHHHHHHGAS
Clec12A (human) [1]
  binding: binds
Clec12A (human) [2]
  binding: binds

B4: CD19 mutant #2-G4Sx4-anti CLEC12a VHH 2F5-myc-His (VHH)
chain: PEEPLVVKVEEGDTAVLPCLKGTSDGPTQQLTWSRESPLKPFLKYSLGVPGLGVHVRPDAISVVIRNVSQQMGGFYLCQPGPPSEKAWQPGWTVNVEGSGELFRWNVSDLGGLGCGLKNRSSEGPSSPSGKLMSPKLYVWAKDRPEIWEGEPPCLPPRDSLNQSLSQDLTMAPGSTLWLSCGVPPDSVSRGPLSWTHVHPKGPKSLLSLELKDDRPAREMIVDETGLLLPRATAQDAGKWYCSRGNVTTSYHLEITARPVKAHSDLRTGGWKGGGGSGGGGSGGGGSGGGGSQVQLQQSGGGLAQTGGSLILSCAASGSIFAINEINLMGWYRQAPGKQRELVAACASDGNTYYADSVKGRFTISRDNAEKTVYLQMNNLKPDDTAVYYCDANSRGNYYSGQGTQVTVSSTSGPGGQGAEQKLISEEDLGAHHHHHHGAS
Clec12A (human) [1]
  binding: binds
Clec12A (human) [2]
  binding: binds

B5: CD19 ECD N term mutant #2-G4Sx4-anti CLEC12a VHH 1B12-His (VHH)
chain: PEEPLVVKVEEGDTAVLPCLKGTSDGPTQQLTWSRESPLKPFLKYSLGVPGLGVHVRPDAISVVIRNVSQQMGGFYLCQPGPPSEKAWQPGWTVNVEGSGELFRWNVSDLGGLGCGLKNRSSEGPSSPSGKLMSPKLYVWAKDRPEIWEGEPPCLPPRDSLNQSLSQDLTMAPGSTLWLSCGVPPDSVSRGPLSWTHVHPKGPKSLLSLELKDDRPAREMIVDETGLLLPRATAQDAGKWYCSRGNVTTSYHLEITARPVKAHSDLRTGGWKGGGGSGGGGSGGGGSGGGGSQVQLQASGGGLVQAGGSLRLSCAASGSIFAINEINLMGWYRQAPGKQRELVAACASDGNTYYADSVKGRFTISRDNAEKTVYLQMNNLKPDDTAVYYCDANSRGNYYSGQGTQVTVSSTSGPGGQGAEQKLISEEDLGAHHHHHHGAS
Clec12A (human) [3]
  binding: binds
